{"sequences": {"note": "By UniProt entry, the sequences of proteins in these tests, tags left out. Where a name states a change or a piece, a line headed by the entry shows the natural chain unless it says otherwise.", "UniProt Q9GZR1": "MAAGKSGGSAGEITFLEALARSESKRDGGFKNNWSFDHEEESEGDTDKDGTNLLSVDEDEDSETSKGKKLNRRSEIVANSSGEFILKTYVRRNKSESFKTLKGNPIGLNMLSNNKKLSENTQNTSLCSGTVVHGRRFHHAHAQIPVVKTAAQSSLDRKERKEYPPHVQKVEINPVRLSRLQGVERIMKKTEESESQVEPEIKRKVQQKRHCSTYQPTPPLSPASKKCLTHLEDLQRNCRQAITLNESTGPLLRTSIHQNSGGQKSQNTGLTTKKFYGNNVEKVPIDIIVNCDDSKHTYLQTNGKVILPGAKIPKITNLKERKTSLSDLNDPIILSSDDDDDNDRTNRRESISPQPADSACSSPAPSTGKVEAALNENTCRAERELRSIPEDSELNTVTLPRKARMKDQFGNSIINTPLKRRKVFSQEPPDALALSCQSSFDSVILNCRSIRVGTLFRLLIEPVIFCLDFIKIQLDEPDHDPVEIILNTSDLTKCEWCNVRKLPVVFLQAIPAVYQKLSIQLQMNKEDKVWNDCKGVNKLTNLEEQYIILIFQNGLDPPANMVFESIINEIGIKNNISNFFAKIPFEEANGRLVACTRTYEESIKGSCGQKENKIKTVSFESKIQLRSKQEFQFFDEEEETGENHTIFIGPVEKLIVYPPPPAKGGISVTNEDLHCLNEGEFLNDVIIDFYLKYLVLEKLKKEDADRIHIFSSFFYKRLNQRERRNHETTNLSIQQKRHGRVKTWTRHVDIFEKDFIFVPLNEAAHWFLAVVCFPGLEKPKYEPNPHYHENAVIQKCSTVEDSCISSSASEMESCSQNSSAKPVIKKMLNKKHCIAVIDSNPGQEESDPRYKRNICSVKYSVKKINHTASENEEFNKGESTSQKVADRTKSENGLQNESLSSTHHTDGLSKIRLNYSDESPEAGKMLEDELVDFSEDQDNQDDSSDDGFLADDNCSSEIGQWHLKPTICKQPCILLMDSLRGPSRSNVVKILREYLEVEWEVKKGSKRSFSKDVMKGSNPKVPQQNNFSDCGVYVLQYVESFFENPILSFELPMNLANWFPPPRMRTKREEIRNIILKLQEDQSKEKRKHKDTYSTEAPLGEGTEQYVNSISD"}, "source": "PubChem BioAssay AID2599", "about": "(Sanford-Burnham Center for Chemical Genomics, 2010)", "note": "This is a selection; strong and weak results do not stand in their true shares. The source made the active and inactive calls.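 The calls were made as follows: active = inhibition above about 50% at the single tested dose (limit read from the data); inactive = the rest.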"}
{"target": "Sentrin-specific protease 6 (Homo sapiens) (UniProt Q9GZR1)", "experiment": "inhibition of human SENP6 catalytic domain – biochemical, luminescence, uHTS, primary screen (AID 2599);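 also: plate controls were DMSO wells with enzyme for no effect and DMSO wells lacking enzyme for full effect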", "conditions": "Recombinant SENP6 catalytic domain, aminoluciferin luminescence; at 10 µM; hits give high values"}
{"molecule": "Cc1cc(=O)oc2cc(OCc3ccccc3)ccc12", "inhibition": "active: 56.5%"}
